{"source": "PubChem BioAssay AID1347076", "about": "(National Center for Advancing Translational Sciences (NCATS), 2019)", "note": "The whole screen tested about 400,000 compounds, of which about 13,000 (3.2%) were called active. The shares of active, inactive and inconclusive entries below differ from those in the screen. Calls come from the whole dose curve; as a rule, active = well fitted cell-killing curve with a large enough effect; inconclusive = small, poorly fitted or top-dose-only effect, or effect the other way; inactive = flat fitted curve, though single readings scatter. Where the call is inconclusive, the potency comes from a doubtful curve fit. % is set by controls: 0 for no effect and ±100 for the full control effect; potency is the fitted concentration of half-maximal effect."}
{"test": "qHTS assay for MDR1-selective chemotherapeutics: Primary screen using the drug-selected MDR subline cells KB-V1; note: nearly all actives have a fitted effect of over 60% in size", "conditions": "KB-V1 MDR cells viability, CellTiter-Glo, 72 h; activity change, negative = cytotoxicity: at 46.1 µM (top of the series)", "summary_of_the_method": "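Readout: CellTiter-Glo luminescence, 10 min after addition. Cells: KB-V1 MDR subline, 72 h at 37 degrees C with compound. Analysis: corrected, normalized data fitted to concentration-effect curves.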"}
{"smiles": "CCOc1ccc(NC(=S)N(CCCN2CCCC2)Cc2cccn2Cc2ccc(Cl)cc2)cc1", "activity change, negative = cytotoxicity": "inactive: -16.9%"}
{"smiles": "Cc1nc(C)c(-c2csc(Nc3ccc(S(N)(=O)=O)cc3)n2)s1", "activity change, negative = cytotoxicity": "inactive: 14.6%"}
{"smiles": "O=C(NCc1ccc2c(c1)OCO2)C1CC(=O)N(CCc2ccc(F)cc2)C1", "note": "(centres undefined)", "activity change, negative = cytotoxicity": "inactive: 14.5%"}
{"smiles": "COc1cccc(-c2ccc3c(N)c(C(=O)NCc4ccc(Cl)cc4)sc3n2)c1", "activity change, negative = cytotoxicity": "inactive: -5.65%"}
{"smiles": "Cc1ccc(C)c(S(=O)(=O)C(C#N)c2nc3ccccc3nc2N2CC(C)OC(C)C2)c1", "note": "(centres undefined)", "Potency": "inconclusive: 16.4 µM [cytotoxic, single point]"}
{"smiles": "Cc1ccc(C(=O)NCCC(=O)N2CCC3(CC2)NCCc2[nH]cnc23)cc1C", "Potency": "inconclusive: 25.9 µM [rising, single point]"}
{"smiles": "CCOC(=O)C[C@H]1c2cc(F)ccc2S(=O)(=O)N1C(C)(C)C", "Potency": "inconclusive: 18.4 µM [cytotoxic, single point]"}
{"smiles": "O=C(COc1cccc(Br)c1)NN=C1c2ccccc2-c2ccccc21", "Potency": "inconclusive: 29.1 µM [cytotoxic, single point]"}
{"smiles": "O=[N+]([O-])c1ccc2c(c1)C(N1CCOCC1)/C(=C/COc1ccc(Cl)cc1Cl)O2", "note": "(centres undefined)", "Potency": "inconclusive: 29.1 µM [cytotoxic, single point]"}
{"smiles": "CC(C)c1ccc(C2=C(O)c3ccccc3C(=O)C2=O)cc1", "Potency": "inconclusive: 18.4 µM [cytotoxic, partial curve]"}
{"smiles": "O=C(Nc1cc(C(F)(F)F)ccc1N1CCOCC1)c1ccncc1", "activity change, negative = cytotoxicity": "inactive: -3.75%"}
{"smiles": "COc1cccc(C(C(=O)NCc2ccccc2)N2CCN(CCN3CCOCC3)CC2)c1OC", "note": "(centres undefined)", "activity change, negative = cytotoxicity": "inactive: -16.9%"}
{"smiles": "Cc1nc2ccc(F)cc2cc1C(=O)Nc1ccc(Cl)c(Cl)c1", "Potency": "inconclusive: 18.4 µM [cytotoxic, partial curve]"}
{"smiles": "O=C(N/N=C(\\c1ccccc1)c1cccnc1)c1cccc(F)c1", "Potency": "inconclusive: 0.651 µM [cytotoxic, full curve]"}
{"smiles": "COc1ccc(CCNC(=O)[C@H](C)N2C(=O)N3CCc4c([nH]c5ccccc45)[C@@]3(C)C2=O)cc1", "Potency": "inconclusive: 23.1 µM [cytotoxic, single point]"}
{"smiles": "Cc1ccc(Cl)cc1N1CCN(C(=S)NCc2ccco2)CC1", "Potency": "inconclusive: 25.9 µM [cytotoxic, single point]"}
{"smiles": "COc1ccc(CCN(Cc2cccs2)S(=O)(=O)c2ccc(S(=O)(=O)N3CCCCCC3)cc2)cc1OC", "Potency": "inconclusive: 0.651 µM [cytotoxic, full curve, poor fit]"}
{"smiles": "O=C(CC(c1cccs1)N1Cc2ccccc2C1=O)Nc1ccc(F)c(Cl)c1", "note": "(centres undefined)", "activity change, negative = cytotoxicity": "inconclusive: -45.6%"}
{"smiles": "O=C(NCCc1ccccc1)c1cc2sccc2n1Cc1ccccc1", "activity change, negative = cytotoxicity": "inactive: -9.89%"}
